Results are given in words; binding and its absence hold for the method and conditions named. Some binding calls cover weakened binding; strength is not graded here.
What was measured:
Assay in all cases: SEC; size exclusion chromatography of purified Rad54 proteins; conditions not shown (Supplementary Figure S5A-C); both purified
[1] = target: T1, Rad54 (wild type, S. cerevisiae) (S. cerevisiae), P32863; conditions: remark: other sources report otherwise
T1 chain: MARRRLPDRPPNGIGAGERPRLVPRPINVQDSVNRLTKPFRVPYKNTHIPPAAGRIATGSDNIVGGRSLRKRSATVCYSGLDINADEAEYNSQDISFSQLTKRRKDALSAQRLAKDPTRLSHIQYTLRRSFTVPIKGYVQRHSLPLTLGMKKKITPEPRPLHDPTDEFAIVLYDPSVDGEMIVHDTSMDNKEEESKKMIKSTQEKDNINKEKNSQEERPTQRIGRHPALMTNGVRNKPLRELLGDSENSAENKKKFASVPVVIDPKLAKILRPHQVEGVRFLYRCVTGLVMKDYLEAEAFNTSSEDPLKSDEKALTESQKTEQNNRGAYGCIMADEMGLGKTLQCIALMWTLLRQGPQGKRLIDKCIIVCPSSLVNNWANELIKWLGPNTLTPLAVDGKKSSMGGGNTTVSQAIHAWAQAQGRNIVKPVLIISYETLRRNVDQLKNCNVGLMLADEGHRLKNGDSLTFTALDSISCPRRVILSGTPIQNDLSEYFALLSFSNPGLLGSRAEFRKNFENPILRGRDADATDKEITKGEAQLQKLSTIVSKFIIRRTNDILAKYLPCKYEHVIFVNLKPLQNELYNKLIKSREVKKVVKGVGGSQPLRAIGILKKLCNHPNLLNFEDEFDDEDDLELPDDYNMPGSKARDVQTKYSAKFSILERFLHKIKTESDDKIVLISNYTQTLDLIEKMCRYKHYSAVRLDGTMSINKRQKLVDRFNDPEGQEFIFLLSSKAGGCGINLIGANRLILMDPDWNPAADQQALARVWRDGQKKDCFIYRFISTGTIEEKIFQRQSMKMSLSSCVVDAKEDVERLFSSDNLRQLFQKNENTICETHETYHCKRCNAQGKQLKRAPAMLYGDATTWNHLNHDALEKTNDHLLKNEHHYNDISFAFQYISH

[2] = target: Rad54R272Q (S. cerevisiae) (S. cerevisiae) (UniProt P32863)
[3] = target: Rad54R272A (S. cerevisiae) (S. cerevisiae) (UniProt P32863)

B1: Rad54 (wild type, S. cerevisiae), P32863 1-898 (enzyme)
chain: MARRRLPDRPPNGIGAGERPRLVPRPINVQDSVNRLTKPFRVPYKNTHIPPAAGRIATGSDNIVGGRSLRKRSATVCYSGLDINADEAEYNSQDISFSQLTKRRKDALSAQRLAKDPTRLSHIQYTLRRSFTVPIKGYVQRHSLPLTLGMKKKITPEPRPLHDPTDEFAIVLYDPSVDGEMIVHDTSMDNKEEESKKMIKSTQEKDNINKEKNSQEERPTQRIGRHPALMTNGVRNKPLRELLGDSENSAENKKKFASVPVVIDPKLAKILRPHQVEGVRFLYRCVTGLVMKDYLEAEAFNTSSEDPLKSDEKALTESQKTEQNNRGAYGCIMADEMGLGKTLQCIALMWTLLRQGPQGKRLIDKCIIVCPSSLVNNWANELIKWLGPNTLTPLAVDGKKSSMGGGNTTVSQAIHAWAQAQGRNIVKPVLIISYETLRRNVDQLKNCNVGLMLADEGHRLKNGDSLTFTALDSISCPRRVILSGTPIQNDLSEYFALLSFSNPGLLGSRAEFRKNFENPILRGRDADATDKEITKGEAQLQKLSTIVSKFIIRRTNDILAKYLPCKYEHVIFVNLKPLQNELYNKLIKSREVKKVVKGVGGSQPLRAIGILKKLCNHPNLLNFEDEFDDEDDLELPDDYNMPGSKARDVQTKYSAKFSILERFLHKIKTESDDKIVLISNYTQTLDLIEKMCRYKHYSAVRLDGTMSINKRQKLVDRFNDPEGQEFIFLLSSKAGGCGINLIGANRLILMDPDWNPAADQQALARVWRDGQKKDCFIYRFISTGTIEEKIFQRQSMKMSLSSCVVDAKEDVERLFSSDNLRQLFQKNENTICETHETYHCKRCNAQGKQLKRAPAMLYGDATTWNHLNHDALEKTNDHLLKNEHHYNDISFAFQYISH
B1 was tested, and the binding [1] was “binds”.

B2: Rad54R272Q (S. cerevisiae) (enzyme, UniProt P32863 1-898)
chain: MARRRLPDRPPNGIGAGERPRLVPRPINVQDSVNRLTKPFRVPYKNTHIPPAAGRIATGSDNIVGGRSLRKRSATVCYSGLDINADEAEYNSQDISFSQLTKRRKDALSAQRLAKDPTRLSHIQYTLRRSFTVPIKGYVQRHSLPLTLGMKKKITPEPRPLHDPTDEFAIVLYDPSVDGEMIVHDTSMDNKEEESKKMIKSTQEKDNINKEKNSQEERPTQRIGRHPALMTNGVRNKPLRELLGDSENSAENKKKFASVPVVIDPKLAKILQPHQVEGVRFLYRCVTGLVMKDYLEAEAFNTSSEDPLKSDEKALTESQKTEQNNRGAYGCIMADEMGLGKTLQCIALMWTLLRQGPQGKRLIDKCIIVCPSSLVNNWANELIKWLGPNTLTPLAVDGKKSSMGGGNTTVSQAIHAWAQAQGRNIVKPVLIISYETLRRNVDQLKNCNVGLMLADEGHRLKNGDSLTFTALDSISCPRRVILSGTPIQNDLSEYFALLSFSNPGLLGSRAEFRKNFENPILRGRDADATDKEITKGEAQLQKLSTIVSKFIIRRTNDILAKYLPCKYEHVIFVNLKPLQNELYNKLIKSREVKKVVKGVGGSQPLRAIGILKKLCNHPNLLNFEDEFDDEDDLELPDDYNMPGSKARDVQTKYSAKFSILERFLHKIKTESDDKIVLISNYTQTLDLIEKMCRYKHYSAVRLDGTMSINKRQKLVDRFNDPEGQEFIFLLSSKAGGCGINLIGANRLILMDPDWNPAADQQALARVWRDGQKKDCFIYRFISTGTIEEKIFQRQSMKMSLSSCVVDAKEDVERLFSSDNLRQLFQKNENTICETHETYHCKRCNAQGKQLKRAPAMLYGDATTWNHLNHDALEKTNDHLLKNEHHYNDISFAFQYISH
For B2, the binding [2] was “binds”.

B3: Rad54R272A (S. cerevisiae) (enzyme, UniProt P32863 1-898)
chain: MARRRLPDRPPNGIGAGERPRLVPRPINVQDSVNRLTKPFRVPYKNTHIPPAAGRIATGSDNIVGGRSLRKRSATVCYSGLDINADEAEYNSQDISFSQLTKRRKDALSAQRLAKDPTRLSHIQYTLRRSFTVPIKGYVQRHSLPLTLGMKKKITPEPRPLHDPTDEFAIVLYDPSVDGEMIVHDTSMDNKEEESKKMIKSTQEKDNINKEKNSQEERPTQRIGRHPALMTNGVRNKPLRELLGDSENSAENKKKFASVPVVIDPKLAKILAPHQVEGVRFLYRCVTGLVMKDYLEAEAFNTSSEDPLKSDEKALTESQKTEQNNRGAYGCIMADEMGLGKTLQCIALMWTLLRQGPQGKRLIDKCIIVCPSSLVNNWANELIKWLGPNTLTPLAVDGKKSSMGGGNTTVSQAIHAWAQAQGRNIVKPVLIISYETLRRNVDQLKNCNVGLMLADEGHRLKNGDSLTFTALDSISCPRRVILSGTPIQNDLSEYFALLSFSNPGLLGSRAEFRKNFENPILRGRDADATDKEITKGEAQLQKLSTIVSKFIIRRTNDILAKYLPCKYEHVIFVNLKPLQNELYNKLIKSREVKKVVKGVGGSQPLRAIGILKKLCNHPNLLNFEDEFDDEDDLELPDDYNMPGSKARDVQTKYSAKFSILERFLHKIKTESDDKIVLISNYTQTLDLIEKMCRYKHYSAVRLDGTMSINKRQKLVDRFNDPEGQEFIFLLSSKAGGCGINLIGANRLILMDPDWNPAADQQALARVWRDGQKKDCFIYRFISTGTIEEKIFQRQSMKMSLSSCVVDAKEDVERLFSSDNLRQLFQKNENTICETHETYHCKRCNAQGKQLKRAPAMLYGDATTWNHLNHDALEKTNDHLLKNEHHYNDISFAFQYISH
In the case of B3, the binding [3] is reported as “binds”.
